Values of other authors in patent publication US20080234223A1, “N4 MODIFICATIONS OF PYRIMIDINE ANALOGS AND USES THEREOF” (UNIVERSITY OF SOUTHERN CALIFORNIA, priority 2006, published 2008).
At least one compound was matched to its structure with a doubt left.

Tested on: DNA methylation
Settings: cited from earlier work

O=c1ncccn1[C@@H]1O[C@H](CO)[C@@H](O)[C@H]1O [zebularine]
times less potent than decitabine at inhibiting DNA methylation: 100 times
